Results reported in article PMC3928829.
These are yes or no findings as the source states them, for the method shown. In cells and extracts the contact can be indirect. Binding can be weak; no strength is given. Tags and fused reporters may be left off the sequences shown.

Target: T1, 3xFLAG-Ref(2)P (Drosophila) (UniProt P14199)
T1 sequence: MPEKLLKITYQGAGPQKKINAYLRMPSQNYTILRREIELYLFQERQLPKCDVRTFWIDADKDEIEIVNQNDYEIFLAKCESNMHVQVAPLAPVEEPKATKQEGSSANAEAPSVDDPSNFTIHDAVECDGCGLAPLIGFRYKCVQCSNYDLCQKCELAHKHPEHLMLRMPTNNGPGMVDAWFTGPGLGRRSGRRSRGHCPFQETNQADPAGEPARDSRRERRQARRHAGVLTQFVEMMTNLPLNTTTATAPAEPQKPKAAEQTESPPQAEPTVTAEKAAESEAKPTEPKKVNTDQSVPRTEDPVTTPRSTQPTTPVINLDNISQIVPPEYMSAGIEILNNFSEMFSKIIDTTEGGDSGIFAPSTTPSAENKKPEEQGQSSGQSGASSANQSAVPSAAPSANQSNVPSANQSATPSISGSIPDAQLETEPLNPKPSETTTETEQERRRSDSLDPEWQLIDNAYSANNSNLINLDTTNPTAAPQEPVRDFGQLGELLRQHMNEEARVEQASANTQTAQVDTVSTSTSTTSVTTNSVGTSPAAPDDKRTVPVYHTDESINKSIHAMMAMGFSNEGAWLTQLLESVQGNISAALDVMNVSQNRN
Experiment: co-IP; two tagged proteins (3xHA and 3xFLAG) co-expressed in D.Mel-2 cells from UAS plasmids with mt-Gal4; anti-tag immunoprecipitation, western blot

- binding: binds
Substance: 3xHA-Atg18 (Drosophila)
